The assay deals with Protein A (UniProt P38507). Briefly: lateral flow assay, Protein A control line on a nitrocellulose strip.

These are yes or no findings as the source states them, for the method shown. Some entries that bind do so weakly or less than the wild type.

B1: 5D2 monoclonal antibody (antibody, mouse IgG2b, kappa, V domains shown)
VH: QVQLQQPGAELVKPGASVKVSCKASGYTFTSYWMHWVKQRPGQGLEWIGRIHLSDSDTNYNQNFKDKATLTVDKSSRTAHMHLSSLTSADSAVYYCAMGGTFQSNYDTYWGQGTLVTVSA
VL: DIQMTQSPASLSASVGETVTITCRASGNIHNYLAWYQQKQGKSPQLLVYNAKTLTDGVPSRFSGSGSGTQYSLKINSLQPEDFGNYYCQHFLYTPYTFGGGTKLEMRR
notes: Mouse IgG2b, kappa, raised against the small molecule emtricitabine (FTC); In the lateral flow assay the antibody was conjugated to gold; also called Mab 5D2; FTC (5D2) monoclonal antibody
As for B1, the binding entry was “binds”.

Values taken from patent US20210253738A1 (UNITED STATES OF AMERICA AS REPRESENTED BY THE SECRETARY …, published 2021).
